In patent publication US5789379A, “Glucagon-like peptide-2 analogs” (Allelix Biopharmaceutical Inc., priority 1996, dated 1998):
Part of at least one peptide drawing is inferred or uncertain, most often the ends. Square brackets hold non-standard residues; d marks the D form. Ends that are not written are not given here. Peptide text beside a SMILES is read from it. Met(O2) = CS(=O)(=O)CC[C@H](N)C(=O)O

System: CD1 mice
Assay: Intestinotrophic activity assessment (small bowel weight) in CD1 mice
Type: in vivo

CC[C@H](C)[C@H](NC(=O)[C@H](Cc1ccccc1)NC(=O)[C@H](CC(=O)O)NC(=O)[C@H](CCCNC(=N)N)NC(=O)[C@@H](NC(=O)[C@H](C)NC(=O)[C@H](CC(C)C)NC(=O)[C@H](CC(N)=O)NC(=O)[C@H](CC(=O)O)NC(=O)[C@H](CC(C)C)NC(=O)[C@@H](NC(=O)[C@@H](NC(=O)[C@H](CC(N)=O)NC(=O)[C@H](CCS(C)(=O)=O)NC(=O)[C@H](CCC(=O)O)NC(=O)[C@H](CC(=O)O)NC(=O)[C@H](CO)NC(=O)[C@H](Cc1ccccc1)NC(=O)[C@H](CO)NC(=O)CNC(=O)[C@H](CC(=O)O)NC(=O)[C@H](C)NC(=O)[C@@H](N)Cc1c[nH]cn1)[C@@H](C)O)[C@@H](C)CC)[C@@H](C)O)C(=O)N[C@@H](CC(N)=O)C(=O)N[C@@H](Cc1c[nH]c2ccccc12)C(=O)N[C@@H](CC(C)C)C(=O)N[C@H](C(=O)N[C@@H](CCC(N)=O)C(=O)N[C@H](C(=O)N[C@@H](CCCCN)C(=O)N[C@H](C(=O)N[C@H](C(=O)N[C@@H](CC(=O)O)C(=O)O)[C@@H](C)O)[C@@H](C)CC)[C@@H](C)O)[C@@H](C)CC [compound 17, [Met SO2^10]rGLP-2] (H-HADGSFSDE[Met(O2)]NTILDNLATRDFINWLIQTKITD-OH)
% Increase in small bowel weight (CD1 mice, 2.5 μg peptide s.c. b.i.d. in PBS, sacrificed 10 or 14 days after injection, relative to vehicle only): 8%

HGDGSFSDEMNTILDNLATRDFINWLIQTKITD [compound 4, [Gly^2]rGLP-2]
intestinotrophic activity compared to the naturally occuring molecule / rGLP-2 (comment on Table 1, CD1 mice): greatly enhanced

HADGSFSDELNTILDNLATRDFINWLIQTKITD [compound 15, [Leu^10]rGLP-2]
increase in intestinotrophic activity (comment on Table 1, CD1 mice): < 50%

CC[C@H](C)[C@H](NC(=O)[C@H](Cc1ccccc1)NC(=O)[C@H](CC(=O)O)NC(=O)[C@H](CCCNC(=N)N)NC(=O)[C@H](C)NC(=O)[C@H](C)NC(=O)[C@H](CC(C)C)NC(=O)[C@H](CC(N)=O)NC(=O)[C@H](CC(=O)O)NC(=O)[C@H](CC(C)C)NC(=O)[C@@H](NC(=O)[C@@H](NC(=O)[C@H](CC(N)=O)NC(=O)[C@H](CCSC)NC(=O)[C@H](CCC(=O)O)NC(=O)[C@H](CC(=O)O)NC(=O)[C@H](CO)NC(=O)[C@H](Cc1ccccc1)NC(=O)[C@H](CO)NC(=O)CNC(=O)[C@H](CC(=O)O)NC(=O)CNC(=O)[C@@H](N)Cc1c[nH]cn1)[C@@H](C)O)[C@@H](C)CC)C(=O)N[C@@H](CC(N)=O)C(=O)N[C@@H](Cc1c[nH]c2ccccc12)C(=O)N[C@@H](CC(C)C)C(=O)N[C@H](C(=O)N[C@@H](CCC(N)=O)C(=O)N[C@H](C(=O)N[C@@H](CCCCN)C(=O)N[C@H](C(=O)N[C@H](C(=O)N[C@@H](CC(=O)O)C(=O)O)[C@@H](C)O)[C@@H](C)CC)[C@@H](C)O)[C@@H](C)CC [compound 6, [Gly^2]hGLP-2]
intestinotrophic activity compared to the naturally occuring molecule / rGLP-2 (comment on Table 1, CD1 mice): substantially increased
